From ChEMBL document CHEMBL4316593 (Eur J Med Chem, 2019)
The source gives many values for each of these; only a part stands here.

Legend:
Format in all cases: cell-based
Conditions in all cases: U-87MG ATCC
[1] = Inhibition of RTK/PI3K/AKT/mTOR signaling in human U87 cells assessed as down regulation of ATP10D gene expression at cytotoxic IC50 measured after 48 hrs relative to control
[2] = Inhibition of RTK/PI3K/AKT/mTOR signaling in human U87 cells assessed as down regulation of FIGNL1 gene expression at cytotoxic IC50 measured after 48 hrs relative to control
[3] = Inhibition of RTK/PI3K/AKT/mTOR signaling in human U87 cells assessed as down regulation of ORC6 gene expression at cytotoxic IC50 measured after 48 hrs relative to control
[4] = Inhibition of RTK/PI3K/AKT/mTOR signaling in human U87 cells assessed as down regulation of C7orf26 gene expression at cytotoxic IC50 measured after 48 hrs relative to control
[5] = Inhibition of RTK/PI3K/AKT/mTOR signaling in human U87 cells assessed as down regulation of NFKBIE gene expression at cytotoxic IC50 measured after 48 hrs relative to control
[6] = Inhibition of RTK/PI3K/AKT/mTOR signaling in human U87 cells assessed as down regulation of SMC4 gene expression at cytotoxic IC50 measured after 48 hrs relative to control
[7] = Inhibition of RTK/PI3K/AKT/mTOR signaling in human U87 cells assessed as down regulation of NPNT gene expression at cytotoxic IC50 measured after 48 hrs relative to control
[8] = Inhibition of RTK/PI3K/AKT/mTOR signaling in human U87 cells assessed as down regulation of ABCA5 gene expression at cytotoxic IC50 measured after 48 hrs relative to control
[9] = Inhibition of RTK/PI3K/AKT/mTOR signaling in human U87 cells assessed as down regulation of SIK2 gene expression at cytotoxic IC50 measured after 48 hrs relative to control
[10] = Inhibition of RTK/PI3K/AKT/mTOR signaling in human U87 cells assessed as down regulation of PIM1 gene expression at cytotoxic IC50 measured after 48 hrs relative to control
[11] = Inhibition of RTK/PI3K/AKT/mTOR signaling in human U87 cells assessed as down regulation of MIGA1 gene expression at cytotoxic IC50 measured after 48 hrs relative to control
[12] = Inhibition of RTK/PI3K/AKT/mTOR signaling in human U87 cells assessed as down regulation of PSMB1 gene expression at cytotoxic IC50 measured after 48 hrs relative to control
[13] = Inhibition of RTK/PI3K/AKT/mTOR signaling in human U87 cells assessed as down regulation of ZNF621 gene expression at cytotoxic IC50 measured after 48 hrs relative to control
[14] = Inhibition of RTK/PI3K/AKT/mTOR signaling in human U87 cells assessed as down regulation of AP1G1 gene expression at cytotoxic IC50 measured after 48 hrs relative to control
[15] = Inhibition of RTK/PI3K/AKT/mTOR signaling in human U87 cells assessed as down regulation of ZNF609 gene expression at cytotoxic IC50 measured after 48 hrs relative to control
[16] = Inhibition of RTK/PI3K/AKT/mTOR signaling in human U87 cells assessed as down regulation of EIF2AK4 gene expression at cytotoxic IC50 measured after 48 hrs relative to control
[17] = Inhibition of RTK/PI3K/AKT/mTOR signaling in human U87 cells assessed as up regulation of RPE65 gene expression at cytotoxic IC50 measured after 48 hrs relative to control
[18] = Inhibition of RTK/PI3K/AKT/mTOR signaling in human U87 cells assessed as up regulation of L3MBTL3 gene expression at cytotoxic IC50 measured after 48 hrs relative to control
[19] = Inhibition of RTK/PI3K/AKT/mTOR signaling in human U87 cells assessed as up regulation of SLC16A3 gene expression at cytotoxic IC50 measured after 48 hrs relative to control
[20] = Inhibition of RTK/PI3K/AKT/mTOR signaling in human U87 cells assessed as up regulation of ATPase secretory pathway Ca2+ transporting 2 gene expression at cytotoxic IC50 measured after 48 hrs relative to control
[21] = Inhibition of RTK/PI3K/AKT/mTOR signaling in human U87 cells assessed as up regulation of adenosine A2b receptor gene expression at cytotoxic IC50 measured after 48 hrs relative to control
[22] = Inhibition of RTK/PI3K/AKT/mTOR signaling in human U87 cells assessed as up regulation of enolase 3 gene expression at cytotoxic IC50 measured after 48 hrs relative to control
[23] = Inhibition of RTK/PI3K/AKT/mTOR signaling in human U87 cells assessed as up regulation of paired related homeobox 2 gene expression at cytotoxic IC50 measured after 48 hrs relative to control
[24] = Inhibition of RTK/PI3K/AKT/mTOR signaling in human U87 cells assessed as up regulation of sprouty RTK signaling antagonist 1 gene expression at cytotoxic IC50 measured after 48 hrs relative to control
[25] = Inhibition of RTK/PI3K/AKT/mTOR signaling in human U87 cells assessed as up regulation of chromobox 8 gene expression at cytotoxic IC50 measured after 48 hrs relative to control
[26] = Inhibition of RTK/PI3K/AKT/mTOR signaling in human U87 cells assessed as up regulation of protein phosphatase 1 regulatory subunit 16A gene expression at cytotoxic IC50 measured after 48 hrs relative to control
[27] = Inhibition of RTK/PI3K/AKT/mTOR signaling in human U87 cells assessed as up regulation of UDP-glucose glycoprotein glucosyltransferase 1 gene expression at cytotoxic IC50 measured after 48 hrs relative to control
[28] = Inhibition of RTK/PI3K/AKT/mTOR signaling in human U87 cells assessed as up regulation of tumor protein D52 gene expression at cytotoxic IC50 measured after 48 hrs relative to control
[29] = Inhibition of RTK/PI3K/AKT/mTOR signaling in human U87 cells assessed as up regulation of LDHB gene expression at cytotoxic IC50 measured after 48 hrs relative to control
[30] = Inhibition of RTK/PI3K/AKT/mTOR signaling in human U87 cells assessed as up regulation of AHNAK gene expression at cytotoxic IC50 measured after 48 hrs relative to control
[31] = Inhibition of RTK/PI3K/AKT/mTOR signaling in human U87 cells assessed as up regulation of FOXK1 gene expression at cytotoxic IC50 measured after 48 hrs relative to control
[32] = Inhibition of RTK/PI3K/AKT/mTOR signaling in human U87 cells assessed as up regulation of GNAS gene expression at cytotoxic IC50 measured after 48 hrs relative to control

`CC(=O)C(=NNc1ccccc1C#N)C(C)=O` gave a log2FC [1] of -2.13, a log2FC [2] of -1.75 and a log2FC [3] of -1.44. For the same compound, the log2FC [4] was -1.07, the log2FC [5] was -1.07 and the log2FC [6] was -1. It also gave a log2FC [7] of -0.932, a log2FC [8] of -0.873 and a log2FC [9] of -0.822. It also gave a log2FC [10] of -0.724, a log2FC [11] of -0.709 and a log2FC [12] of -0.654. For the same compound, the log2FC [13] was -0.627, the log2FC [14] was -0.588 and the log2FC [15] was -0.472. The log2FC [16] was -0.433, the log2FC [17] was 3.35 and the log2FC [18] was 2.11. For the same compound, the log2FC [19] was 1.69, the log2FC [20] was 1.51 and the log2FC [21] was 1.45. It also gave a log2FC [22] of 1.43, a log2FC [23] of 1.29 and a log2FC [24] of 1.28. The log2FC [25] was 1.04, the log2FC [26] was 1.02 and the log2FC [27] was 0.809. The log2FC [28] was 0.801, the log2FC [29] was 0.605 and the log2FC [30] was 0.558. The log2FC [31] was 0.535 and the log2FC [32] was 0.356.
